One test deals with T1, GST-Rb (UniProt P06400).
T1 sequence: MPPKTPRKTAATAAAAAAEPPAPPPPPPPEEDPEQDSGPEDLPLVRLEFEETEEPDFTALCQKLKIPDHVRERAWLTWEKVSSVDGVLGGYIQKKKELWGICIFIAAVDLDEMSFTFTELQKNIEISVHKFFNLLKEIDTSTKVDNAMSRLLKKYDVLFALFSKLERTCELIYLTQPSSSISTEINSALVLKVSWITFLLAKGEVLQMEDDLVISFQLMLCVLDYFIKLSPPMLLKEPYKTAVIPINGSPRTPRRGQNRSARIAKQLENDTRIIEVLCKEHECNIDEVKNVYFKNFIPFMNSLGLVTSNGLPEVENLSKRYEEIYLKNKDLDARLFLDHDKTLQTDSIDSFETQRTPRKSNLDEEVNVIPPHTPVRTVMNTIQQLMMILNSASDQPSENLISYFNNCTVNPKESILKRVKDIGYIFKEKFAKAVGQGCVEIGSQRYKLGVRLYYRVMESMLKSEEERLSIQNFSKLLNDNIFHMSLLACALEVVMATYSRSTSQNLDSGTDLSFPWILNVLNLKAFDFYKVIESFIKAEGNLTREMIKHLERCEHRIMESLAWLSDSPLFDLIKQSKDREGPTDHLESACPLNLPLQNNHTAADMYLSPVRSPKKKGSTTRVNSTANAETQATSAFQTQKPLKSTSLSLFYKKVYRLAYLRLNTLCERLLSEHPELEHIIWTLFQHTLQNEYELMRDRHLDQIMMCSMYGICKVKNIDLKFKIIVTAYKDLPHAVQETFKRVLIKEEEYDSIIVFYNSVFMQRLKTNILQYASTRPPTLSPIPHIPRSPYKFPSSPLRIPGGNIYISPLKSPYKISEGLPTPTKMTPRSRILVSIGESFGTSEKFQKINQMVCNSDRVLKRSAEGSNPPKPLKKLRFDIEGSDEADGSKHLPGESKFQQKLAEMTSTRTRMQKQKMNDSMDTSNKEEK
Put plainly: pull-down; GST, GST-Rb or GST-E2F1 on glutathione-Sepharose beads; 10 µl of 35S-labeled KDM2A reticulocyte lysate; protein-binding buffer, 2 hr at 4°C, six washes; SDS-PAGE and autoradiography; only the target purified.

Amino acid sequences for entries named in this document (tags omitted).
UniProt Q01094: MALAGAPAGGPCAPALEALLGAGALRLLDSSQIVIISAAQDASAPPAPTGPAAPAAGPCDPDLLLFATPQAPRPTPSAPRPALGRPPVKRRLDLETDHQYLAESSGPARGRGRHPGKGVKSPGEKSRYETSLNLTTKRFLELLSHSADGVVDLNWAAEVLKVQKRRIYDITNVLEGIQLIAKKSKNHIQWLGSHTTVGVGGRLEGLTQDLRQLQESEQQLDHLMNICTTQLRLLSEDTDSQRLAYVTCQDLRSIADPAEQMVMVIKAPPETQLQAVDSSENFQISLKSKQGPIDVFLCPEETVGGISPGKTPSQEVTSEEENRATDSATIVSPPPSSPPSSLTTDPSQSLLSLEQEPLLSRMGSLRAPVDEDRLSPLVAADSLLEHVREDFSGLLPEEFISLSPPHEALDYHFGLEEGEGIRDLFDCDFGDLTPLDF

Another test addresses GST-E2F1 (UniProt Q01094). The description is as above.
The target in test [1] is T2, KDM2A (human (endogenous in MCF7)) (UniProt Q9Y2K7).
T2 sequence: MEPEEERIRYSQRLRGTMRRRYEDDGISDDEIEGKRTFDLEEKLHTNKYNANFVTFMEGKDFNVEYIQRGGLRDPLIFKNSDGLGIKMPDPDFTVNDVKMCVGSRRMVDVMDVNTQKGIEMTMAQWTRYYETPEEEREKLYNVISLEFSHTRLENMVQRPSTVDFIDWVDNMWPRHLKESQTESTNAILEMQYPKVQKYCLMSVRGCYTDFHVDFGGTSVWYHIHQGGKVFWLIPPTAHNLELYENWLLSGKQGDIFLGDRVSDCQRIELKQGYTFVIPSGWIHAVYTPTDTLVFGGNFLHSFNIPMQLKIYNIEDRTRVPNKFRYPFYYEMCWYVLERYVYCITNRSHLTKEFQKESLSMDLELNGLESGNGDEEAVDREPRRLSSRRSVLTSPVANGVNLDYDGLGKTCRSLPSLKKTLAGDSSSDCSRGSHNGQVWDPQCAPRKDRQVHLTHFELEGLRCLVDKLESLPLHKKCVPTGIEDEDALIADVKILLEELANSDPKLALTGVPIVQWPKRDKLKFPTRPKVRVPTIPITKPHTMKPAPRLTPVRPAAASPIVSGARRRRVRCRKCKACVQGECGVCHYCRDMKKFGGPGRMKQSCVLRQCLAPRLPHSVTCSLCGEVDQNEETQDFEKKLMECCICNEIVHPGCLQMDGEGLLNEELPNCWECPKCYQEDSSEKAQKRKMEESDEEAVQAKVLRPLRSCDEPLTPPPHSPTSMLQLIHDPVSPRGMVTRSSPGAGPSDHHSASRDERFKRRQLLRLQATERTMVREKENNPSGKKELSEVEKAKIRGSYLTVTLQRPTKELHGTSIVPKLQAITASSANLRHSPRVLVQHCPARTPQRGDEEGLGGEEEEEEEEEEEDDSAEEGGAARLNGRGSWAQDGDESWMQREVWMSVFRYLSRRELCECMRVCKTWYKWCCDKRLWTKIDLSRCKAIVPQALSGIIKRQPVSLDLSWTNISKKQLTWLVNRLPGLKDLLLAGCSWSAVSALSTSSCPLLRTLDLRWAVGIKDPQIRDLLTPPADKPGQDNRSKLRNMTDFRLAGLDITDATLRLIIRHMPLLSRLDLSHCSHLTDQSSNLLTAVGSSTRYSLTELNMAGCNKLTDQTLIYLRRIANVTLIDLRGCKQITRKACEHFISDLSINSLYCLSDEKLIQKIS
In words: co-IP; 200 µg MCF7 lysate (Nonidet P-40 lysis) precipitated with 2 µg rabbit polyclonal KDM2A antibody, anti-rabbit IgG as control; western blot for Rb and E2F1; cells serum starved 48 hr and stimulated with serum for 0 to 8 hr. On the technique in general: Immunoblotting shows a protein as a band on a membrane.

No constants are given. Whether binding was seen depends on the method and setting. In cells and extracts the contact can be indirect. Some results given as binding are weak or reduced against the parent protein; the word gives no strength. For part of these data: Tags and fused reporters may be left off the sequences shown.

B1: 35S-Methionine-labeled KDM2A (protein, UniProt Q9Y2K7 1-1162)
chain: T2 sequence
modifications: 35S-methionine label
For B1, the binding result with GST-Rb and in the test with GST-E2F1 was “binds” throughout.

B2: Rb (protein, UniProt P06400 1-928)
chain: T1 sequence
B2: the binding entry in test [1] is reported as “binds”.

Source of the values: article PMC4100745.
